PubChem BioAssay AID1487 (National Center for Advancing Translational Sciences (NCATS), 2009)
The list shows a part of the results. These are further read-outs of the screen, such as a control signal, another cell line or another target. No call is given for them. The list favours compounds with an active or inconclusive main result. The note in brackets gives the kind of curve behind each potency; many fits are weak.

Experiment: qHTS Assay for Modulators of Lamin A Splicing
Conditions: HeLa LMNA splicing GFP/RFP minigene ratio, 48 h
Summary of the method: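 S3 HeLa stable clones carrying a lamin A-EGFP splicing minigene plus DsRed2 were seeded at 600 cells/well in Opti-MEM with 2% FBS, pin-dosed and incubated 48 h at 37°C. Acumen cytometry (488 nm) gave the GFP/RFP total-intensity ratio.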

[1] = measured here: RFP viability control channel
[2] = measured here: GFP splicing reporter channel

CCCCn1c(O)c(C=NC2CC3CCC2(C)C3(C)C)c(=O)[nH]c1=O (stereo not given)
AC50 [1]: 20 µM [rising, partial curve, poor fit]

CCOC(=O)c1c(-n2c(C)cc(/C=C3\C(=O)NC(=O)N(C)C3=O)c2C)sc2c1CCCC2
AC50 [1]: 12.6 µM [falling, partial curve]

CCC(=O)c1c(O)n(C2CCCCCC2)c(=O)[nH]c1=O
AC50 [1]: 35.5 µM [rising, single point]

CCN(CC)c1ncnc2c1ncn2[C@@H]1O[C@H](COP(=O)(O)OP(=O)(O)C(Br)(Br)P(=O)(O)O)[C@@H](O)[C@H]1O
AC50 [2]: 0.112 µM [falling, full curve]

COc1ccc(CN2CCN(c3ccccc3F)CC2)c(OC)c1
AC50 [1]: 8.91 µM [rising, partial curve]

CC1CCCC(C)N1c1nnc(NC(=O)Cn2c(=O)oc3ccccc32)s1 (stereo not given)
AC50 [1]: 5.01 µM [rising, partial curve, poor fit]

C[C@@]12CC[C@H]3[C@@H](CC[C@@H]4C[C@H]5S[C@H]5C[C@]43C)[C@H]1CC[C@H]2O
AC50 [2]: 4.47 µM [rising, partial curve]
AC50 [1]: 1.12 µM [rising, full curve, poor fit]

CCCCCCCCCC(=O)O[C@H]1CC[C@H]2[C@@H]3CCC4=CC(=O)CC[C@]4(C)[C@H]3CC[C@]12C
AC50 [2]: 20 µM [rising, single point]
AC50 [1]: 31.6 µM [rising, single point]

CCC(C)N1C(=O)/C(=C/c2ccc3c(c2)CCN3CCCCl)C(=O)NC1=S (stereo not given)
AC50 [2]: 12.6 µM [falling, partial curve]
AC50 [1]: 10 µM [falling, partial curve]

C[N+]1(C)CCN(c2ccccc2)CC1
AC50 [2]: 0.00501 µM [falling, full curve, poor fit]

NC(=O)COc1c(F)cc(SCCNS(=O)(=O)c2ccccc2)cc1F
AC50 [2]: 3.16 µM [rising, partial curve]

Nc1nc2[nH]c(=O)cnc2c(=O)[nH]1
AC50 [1]: 0.00447 µM [falling, full curve, poor fit]

CC1CCN(CC(=O)c2ccc3c(c2)OCCO3)CC1
AC50 [1]: 0.0794 µM [rising, full curve, poor fit]

CC(C(=O)c1ccccc1)N1C(=O)c2ccccc2C1=O (stereo not given)
AC50 [1]: 0.631 µM [falling, single point]

CCCCCC1CC(CC(=O)NC(=S)Nc2ccc([N+](=O)[O-])cc2)C(=O)O1 (stereo not given)
AC50 [1]: 31.6 µM [rising, single point]

Cc1ccc(-c2cc(-c3ccc(C)cc3)[n+](C)o2)cc1
AC50 [2]: 15.8 µM [rising, partial curve]
AC50 [1]: 7.08 µM [rising, partial curve]

O=c1c2ccccc2nc(CSc2ncnc3nc[nH]c23)n1-c1ccccc1
AC50 [2]: 12.6 µM [falling, single point]

Cc1ccc(NC(=O)Cn2c(=O)oc3cc(S(=O)(=O)N4CCCCCC4)ccc32)cc1Cl
AC50 [2]: 10 µM [falling, partial curve, poor fit]
AC50 [1]: 17.8 µM [falling, partial curve, poor fit]

Cc1ccccc1-n1c(-c2ccco2)nc2ccccc2c1=O
AC50 [2]: 15.8 µM [rising, single point]

COc1ccccc1N1C(=O)NC(=O)C2(Cc3cc(C)ccc3N(C)C2)C1=O (stereo not given)
AC50 [1]: 0.631 µM [rising, partial curve]

CCOc1cccc(C2NCc3ccccc3-n3cccc32)c1O (stereo not given)
AC50 [1]: 15.8 µM [rising, single point]

COc1ccc2c(c1)c(C(=O)CN1CCN(C)CC1)c(C)n2Cc1ccccc1
AC50 [2]: 12.6 µM [rising, partial curve, poor fit]

COc1ccc2c(c1)C13CCCC[C@@H]1C(C2)N(C)CC3 (stereo not given in full)
AC50 [2]: 0.0708 µM [falling, full curve, poor fit]
AC50 [1]: 0.0708 µM [falling, full curve, poor fit]

COc1ccc(Cn2c(O)c(/C=N/NC(=O)c3ccccc3O)c(=O)[nH]c2=O)cc1
AC50 [1]: 3.98 µM [rising, partial curve, poor fit]

CN1C(=O)C(=Cc2ccccc2Oc2ccc(Cl)cc2)C(=O)N(C)C1=O
AC50 [1]: 15.8 µM [rising, single point]

CC(C)CC(CN)CC(=O)O (stereo not given)
AC50 [1]: 0.000891 µM [rising, full curve, poor fit]

COc1ccc2c(c1OC)CN1CCc3cc4c(cc3[C@@H]1[C@@H]2O)OCO4
AC50 [1]: 3.55 µM [rising, single point]

N[C@@]1(C(=O)O)CC[C@@H](C(=O)O)C1
AC50 [2]: 4.47 µM [rising, partial curve]
AC50 [1]: 6.31 µM [rising, single point]

[N-]=[N+]=CC(=O)OC[C@H](N)C(=O)O
AC50 [2]: 2.51 µM [rising, partial curve, poor fit]

Fc1ccc(C(OCCN2CCCC2)c2ccc(Br)cc2)cc1 (stereo not given)
AC50 [2]: 35.5 µM [falling, single point]
AC50 [1]: 35.5 µM [falling, single point]

CC/C(=N\N1CCCCCC1)c1c(O)n(-c2ccccc2C)c(=O)[nH]c1=O
AC50 [2]: 14.1 µM [rising, partial curve, poor fit]
AC50 [1]: 12.6 µM [rising, partial curve]

CN(C)CCOc1ccc(/C(=C(/CCCl)c2ccccc2)c2ccccc2)cc1
AC50 [2]: 31.6 µM [rising, single point]
AC50 [1]: 20 µM [rising, single point]

O=C1CN=C(c2ccc(Br)cc2)c2c(sc3c2CCCC3)N1CCN1CCCCC1
AC50 [2]: 1.41 µM [rising, partial curve, poor fit]

CC(=O)N1CN2CN(C1)CN(C(C)=O)C2
AC50 [2]: 17.8 µM [falling, single point]

C=CCn1c(O)c(C(C)=Nc2ccc(N(C)C)cc2)c(=O)[nH]c1=O
AC50 [1]: 17.8 µM [rising, single point]

CC(C(=O)c1c[nH]c2ccccc12)N1CCc2ccccc2C1 (stereo not given)
AC50 [1]: 31.6 µM [rising, single point]

CCOc1ccc(N2C(=O)NC(=O)/C(=C\c3ccc(N4CCCCC4)o3)C2=O)cc1
AC50 [1]: 4.47 µM [falling, full curve, poor fit]

NC(=O)c1cn(C2OC(CO)C(O)C2O)c2ncnc(N)c12 (stereo not given)
AC50 [2]: 0.891 µM [falling, full curve, poor fit]
AC50 [1]: 11.2 µM [rising, partial curve]

COc1cc(CC2(CCc3ccncc3)C(=O)N(C)C(=O)N(C)C2=O)cc(OC)c1OC
AC50 [2]: 22.4 µM [falling, single point]
AC50 [1]: 22.4 µM [falling, partial curve, poor fit]

C[C@@H]1O[C@@H](O[C@H]2C[C@@H](O)[C@]3(CO)[C@H]4[C@H](O)C[C@]5(C)[C@@H](C6=CC(=O)OC6)CC[C@]5(O)[C@@H]4CC[C@]3(O)C2)[C@H](O)[C@H](O)[C@H]1O
AC50 [2]: 0.891 µM [rising, partial curve]
AC50 [1]: 0.794 µM [rising, full curve]

COc1ccc(CNC(=O)Cn2c(SCC(=O)Nc3ccc(C)c(C)c3)nc3ccccc32)cc1
AC50 [2]: 35.5 µM [falling, single point]
AC50 [1]: 35.5 µM [falling, single point]

O=C(C[n+]1ccn(CCCNP2(=O)C=C(c3ccccc3)OC(c3ccccc3)=C2)c1)c1ccccc1
AC50 [1]: 0.126 µM [falling, partial curve, poor fit]

Cc1c(N=Nc2c(O)n(Cc3ccccc3)c(=O)[nH]c2=O)c(=O)n(-c2ccccc2)n1C
AC50 [2]: 11.2 µM [rising, single point]
AC50 [1]: 20 µM [rising, single point]

CCOc1ccc(N(CC)S(=O)(=O)c2ccc3c(c2)oc(=O)n3C)cc1
AC50 [1]: 35.5 µM [rising, single point]

COc1ccc2c3c([nH]c2c1)C(C)=NCC3
AC50 [2]: 2.82 µM [rising, partial curve]
AC50 [1]: 7.08 µM [rising, partial curve]

CCN(CC)c1ccc(/C=C/[N+](=O)[O-])cc1
AC50 [1]: 35.5 µM [rising, single point]

CN(Cc1c[nH]c2ccccc12)C1CCCCC1
AC50 [2]: 31.6 µM [rising, single point]
AC50 [1]: 31.6 µM [rising, single point]

CCCN1CCC[C@@H]2Cc3[nH]ncc3C[C@H]21
AC50 [2]: 11.2 µM [falling, partial curve, poor fit]
AC50 [1]: 5.01 µM [falling, partial curve, poor fit]

C[C@@H](N)Cc1cnc[nH]1
AC50 [1]: 6.31 µM [falling, single point]

Cc1ccc(C2=NN(CCC(=O)N3CCC4(CC3)OCCO4)C(=O)CC2)cc1
AC50 [1]: 0.708 µM [falling, full curve]

CCc1ccc(OCC(=O)N2CCN(CCc3ccncc3)CC2)cc1
AC50 [2]: 0.2 µM [falling, full curve, poor fit]

Clc1cc(I)cc(Cl)c1NC1=NCCN1
AC50 [2]: 5.62 µM [falling, partial curve, poor fit]
AC50 [1]: 6.31 µM [falling, single point]

Cc1ccc(-c2nc3ccc(Cl)cc3n2OC(=O)N(C)C)cc1
AC50 [1]: 12.6 µM [rising, single point]

CC1CCCN(CC(=O)c2ccc(Cl)c(Cl)c2)C1 (stereo not given)
AC50 [1]: 0.0447 µM [rising, full curve, poor fit]

Cc1cc(OCC(=O)NC2CCS(=O)(=O)C2)c2c3c(c(=O)oc2c1)CCC3 (stereo not given)
AC50 [2]: 11.2 µM [rising, partial curve]
AC50 [1]: 3.16 µM [rising, full curve]
